In paper PMC8149447, “Caerulomycin and collismycin antibiotics share a trans-acting flavoprotein-dependent assembly line for 2,2’-bipyridine formation” (Nature Communications, 2021) one finds binding data, which are given here for one molecule.

Substrate in assay [1]: PCP domain of the CaeA2 NRPS module (A. cyanogriseus (CAE-producing strain))
The assay is described as follows: ITC; MicroCal-ITC200, 25°C; 60 μM CaeA2 construct in the cell, 400 μM flavoprotein in the syringe; 50 mM Tris-HCl pH 7.5, 100 mM NaCl, 0.1 mM TCEP, 5% glycerol; single binding site model; both purified. A general note: Isothermal titration calorimetry measures the heat released or taken up as one component is titrated into another.

Assay [2] concerns the target CaeA2ΔCt (A. cyanogriseus (CAE-producing strain)). Described as above.

Results are given in words; binding and its absence hold for the method and conditions named. Sequences can lack the tags named with a protein.

B1: MBP-fused CaeB1 variant (enzyme, UniProt M1F383 1-386)
chain: MTTGNGAAPPPLTRLSPEDEAWRAHVRAFAEEHIAPLSDRMDRDATLDPGLREKLFSAGLMAVEAPARYGGRGGSLFQVVLTIEEVARVDPGVAVGVDVHNALVVATLLRQGTGDQKRRRLPLLATRQVGAFALSEENAGSDAFAGTTTAVPTSDGGYRINGRKRWTSNAGQADVFLVFARTEGHGSSAFLVDRTAEGLSIDPRTEQMGVRAAATADVVLTDVRVRRQDCVGGPGGGEGVAIGALDIGRIGIAAQMVGLAQGALDEAVAYSRTREQFGQPIGSYQGVRFTLADIATEVAAARALLYDVTRTVAAGTDIAERLRLTAMAKYFASQVAERAASRALEVLGGNGFTREYPLERFYRDVKAGKIYEGTSNMLLRSIAGSL
For B1, the binding result in assay [1] is “no binding (tested: 400 μM in the syringe, 60 μM in the cell)”; in assay [2], “no binding (tested: 400 μM in the syringe, 60 μM in the cell)”.
